Laboratory results from article PMC3787081, “The Heteromultimeric Debranching Enzyme Involved in Starch Synthesis in Arabidopsis Requires Both Isoamylase1 and Isoamylase2 Subunits for Complex Stability and Activity” (PLoS ONE, 2013).
Results are given in words; binding and its absence hold for the method and conditions named. Some binding calls cover weakened binding; strength is not graded here. For part of these data: Sequences can lack the tags named with a protein. Blank lines part the entries; values can stand above or below the binder they belong to.

Columns and labels:
[1] = target: T1, ISA2-TAP (ISA2 with a C-terminal tandem affinity purification tag) (Arabidopsis) (UniProt Q8L735); experiment: SEC; extract of ISA2-TAP transformed plants, gel filtration followed by immunoblotting; data not shown
T1 sequence: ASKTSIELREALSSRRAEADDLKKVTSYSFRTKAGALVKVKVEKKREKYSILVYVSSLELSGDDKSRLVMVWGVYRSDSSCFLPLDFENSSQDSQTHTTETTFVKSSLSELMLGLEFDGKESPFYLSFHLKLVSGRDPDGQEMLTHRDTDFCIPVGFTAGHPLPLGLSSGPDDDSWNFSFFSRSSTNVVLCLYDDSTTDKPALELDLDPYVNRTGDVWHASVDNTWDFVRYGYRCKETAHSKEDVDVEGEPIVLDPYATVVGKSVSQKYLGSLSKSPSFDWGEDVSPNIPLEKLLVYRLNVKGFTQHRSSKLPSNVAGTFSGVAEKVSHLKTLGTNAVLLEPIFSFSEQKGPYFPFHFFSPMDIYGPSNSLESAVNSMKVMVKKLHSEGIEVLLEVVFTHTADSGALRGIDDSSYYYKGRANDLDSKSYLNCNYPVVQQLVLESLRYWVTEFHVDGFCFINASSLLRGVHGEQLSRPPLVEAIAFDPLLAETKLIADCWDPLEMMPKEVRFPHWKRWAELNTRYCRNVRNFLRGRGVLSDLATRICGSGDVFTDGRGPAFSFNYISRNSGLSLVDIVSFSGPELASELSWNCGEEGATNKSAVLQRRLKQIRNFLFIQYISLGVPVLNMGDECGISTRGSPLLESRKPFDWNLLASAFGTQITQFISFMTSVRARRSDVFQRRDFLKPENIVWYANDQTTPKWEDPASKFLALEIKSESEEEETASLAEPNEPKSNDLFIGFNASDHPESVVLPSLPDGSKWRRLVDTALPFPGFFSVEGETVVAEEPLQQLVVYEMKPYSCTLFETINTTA

[2] = target: T2, Isoamylase2 (ISA2), Arabidopsis, endogenous (Arabidopsis thaliana (endogenous in leaves)) (UniProt Q8L735); experiment: SEC; crude extract of wild-type Arabidopsis leaves on a calibrated Sephacryl HiLoad 200 prep grade column, 100 mM Tris-HCl pH 7.5, 300 mM KCl, 5 mM DTT, 4°C; fractions analysed by SDS-PAGE and immunoblot with ISA1- and ISA2-specific antibodies
T2 sequence: T1 sequence

[3] = target: T3, Recombinant Arabidopsis ISA2 (without transit peptide) (Arabidopsis) (UniProt Q8L735); experiment: SEC; extract of E. coli cells co-expressing ISA1 and ISA2 on a Sephacryl HiLoad 200 prep grade column, 100 mM Tris-HCl pH 7.5, 300 mM KCl, 5 mM DTT, 4°C; fractions analysed by SDS-PAGE and immunoblot
T3 sequence: T1 sequence

binding [1]: binds | binding [2]: binds
B1: Isoamylase1 (ISA1), Arabidopsis, endogenous (enzyme, UniProt O04196 44-783, looked up)
chain: AKDRRSNEAENIAVVEKPLKSDRFFISDGLPSPFGPTVRDDGVNFSVYSTNSVSATICLISLSDLRQNKVTEEIQLDPSRNRTGHVWHVFLRGDFKDMLYGYRFDGKFSPEEGHYYDSSNILLDPYAKAIISRDEFGVLGPDDNCWPQMACMVPTREEEFDWEGDMHLKLPQKDLVIYEMHVRGFTRHESSKIEFPGTYQGVAEKLDHLKELGINCIELMPCHEFNELEYYSYNTILGDHRVNFWGYSTIGFFSPMIRYASASSNNFAGRAINEFKILVKEAHKRGIEVIMDVVLNHTAEGNEKGPIFSFRGVDNSVYYMLAPKGEFYNYSGCGNTFNCNHPVVRQFILDCLRYWVTEMHVDGFRFDLGSIMSRSSSLWDAANVYGADVEGDLLTTGTPISCPPVIDMISNDPILRGVKLIAEAWDAGGLYQVGMFPHWGIWSEWNGKFRDVVRQFIKGTDGFSGAFAECLCGSPNLYQGGRKPWHSINFICAHDGFTLADLVTYNNKNNLANGEENNDGENHNYSWNCGEEGDFASISVKRLRKRQMRNFFVSLMVSQGVPMIYMGDEYGHTKGGNNNTYCHDNYMNYFRWDKKEEAHSDFFRFCRILIKFRDECESLGLNDFPTAKRLQWHGLAPEIPNWSETSRFVAFSLVDSVKKEIYVAFNTSHLATLVSLPNRPGYRWEPFVDTSKPSPYDCITPDLPERETAMKQYRHFLDANVYPMLSYSSIILLLSPIKDP
notes: Isoamylase 1 (ISA1) of Arabidopsis thaliana, endogenous protein in soluble leaf extracts; Chloroplast protein; also called AtISA1; source: endogenous, Arabidopsis leaf extracts (wild type and ISA2-TAP plants)

binding [3]: binds
B2: Recombinant Arabidopsis ISA1 (without transit peptide) (enzyme, UniProt O04196 44-783)
chain: B1 chain
